Assay results reported in patent EP4737482A1.
Substitutions are numbered along the chain they refer to. These are yes or no findings as the source states them, for the method shown. Some results given as binding are weak or reduced against the parent protein; the word gives no strength.

Sequences of proteins named here, by UniProt entry; tags and fusion partners are left off. A change or cut given only in a name is not applied to a line headed by its entry.
UniProt Q8N699: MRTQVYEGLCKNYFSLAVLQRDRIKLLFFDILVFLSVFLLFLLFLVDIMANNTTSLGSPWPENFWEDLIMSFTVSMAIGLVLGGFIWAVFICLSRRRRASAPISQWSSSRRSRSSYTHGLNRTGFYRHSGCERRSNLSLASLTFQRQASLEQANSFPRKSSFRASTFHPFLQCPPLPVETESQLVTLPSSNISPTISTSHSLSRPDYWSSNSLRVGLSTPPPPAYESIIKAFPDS

Columns and labels:
[1] = molecular target: human MYCT1 (hMYCT1) (human) (UniProt Q8N699); assay: SPR, antibody captured via anti-human Fc IgG, MYCT1 as analyte
[2] = molecular target: human MYCT1 (hMYCT1) (human) (UniProt Q8N699); assay: SPR full kinetics, steady-state affinity model
[3] = molecular target: human MYCT1 (hMYCT1) (human) (UniProt Q8N699); assay: SPR koff ranking, 1:1 binding model
[4] = molecular target: human MYCT1 (hMYCT1) (human) (UniProt Q8N699); assay: SPR full kinetics, 1:1 binding model

B1: 2B4-z2-uIgG1K (antibody, V domains shown)
VH: QVQLVQSGAEVKKPGASVKVSCKASGYTFTDYNMHWVRQAPGQGLEWMGYINPNNGGSSYNRKFKGRVTMTTDTSTSTAYMELRSLRSDDTAVYYCATRFDVWGQGTTVTVSS
VL: DVVMTQSPLSLPVTLGQPASISCKSSQSLLFSDGKTYLNWLQQRPGQSPRRLIYLVSKLDSGVPDRFSGSGSGTDFTLKISRVEAEDVGVYYCWQGTHFPQTFGGGTKVEIK
B1 was tested, and the binding [1] was “binds”.

B2: 2B4-z8-uIgG1K (antibody, V domains shown)
VH: B1 VH with M48I
VL: B1 VL
For B2, the binding [1] was “binds”.

B3: 2B4-z2-p7-uIgG1K (antibody, V domains shown)
VH: B1 VH with N55S
VL: B1 VL with G34A
With B3 the binding [2] was “binds”.

B4: 2B4-z8-p7-uIgG1K (antibody, V domains shown)
VH: B1 VH with M48I, N55S
VL: B1 VL with G34A
For B4, the binding [2] was “binds”.

B5: 11B6-z12-uIgG1K (antibody, V domains shown)
VH: EVQLVESGGGLVKPGGSLRLSCAASGFTFSDFGIHWVRQAPGKGLEWVGYISSGSRTIHYADTVKGRFTISRDNAKNSLYLQMNSLRAEDTAIYYCARRDWDPEWLAYWGQGTLVTVSS
VL: DVVMTQSPLSLPVTPGEPASISCRSSLSLVHSNGHTYLHWYLQKPGQSPKLLIYKVSNRFSGVPDRFSGSGSGTDFTLKIRRVEAEDVGVYFCSQSTHVPFTFGQGTKLEIK
For B5, the binding [3] was “binds”.

B6: 11B6-z10-uIgG1K (antibody, V domains shown)
VH: B5 VH with I93V
VL: B5 VL with K50Q, R81S
In the case of B6, the binding [3] is reported as “binds”.

B7: 11B6-z10-p3-uIgG1K (antibody, V domains shown)
VH: B5 VH with I93V
VL: B5 VL with G34A, K50Q, R81S
B7 was tested, and the binding [4] was “binds”.

B8: 11B6-z12-p3-uIgG1K (antibody, V domains shown)
VH: B5 VH
VL: B5 VL with G34A
For B8, the binding [4] was “binds”.

B9: 11B6-z16-p3-uIgG1K (antibody, V domains shown)
VH: B5 VH with I93V
VL: B5 VL with V2I, G34A, R81S
In the case of B9, the binding [4] is reported as “binds”.
